Results: patent US20260159482A1, “CRYSTAL FORM AND AMORPHOUS FORM OF CAREBASTINE P-TOLUENESULFONATE” (priority 2023, published 2026)
Some entries share one result that the patent states for a list of compounds.

Assay: Stability study: influencing factors (high temperature, high humidity, light exposure), HPLC content
Assay type: physicochemical
Details: for content decrease under high temperature, high humidity, and light exposure: 30 days, each of the three conditions; for content of the maximum single impurity: after 30 days of influencing factor tests, peak area normalization
Experimental: 3 parts of each of the samples, carebastine (Comparative Example 2), the crystal form of carebastine p-toluenesulfonate (Example 2), and the amorphous form of carebastine p-toluenesulfonate (Example X), were weighed and placed in a weighing bottle, respectively, and each group of samples was placed under conditions of high temperature (60° C.), high humidity (RH80%) and light exposure (5000 Lux). Then, the samples were taken for detection after 30 days.
Detection method: An appropriate amount of each sample was taken, weighed precisely, dissolved with acetonitrile and quantitatively diluted into a solution containing about 0.08 mg of sample per 1 ml. High performance liquid chromatography (HPLC) was used, with octadecylsilane-bonded silica gel as filler, water-acetonitrile (1:1) as mobile phase, a detection wavelength of 256 nm, a column temperature of 35° C. and an injection volume of 10 μl. Each sample solution was injected into the liquid chromatograph instrument, and the chromatograms were recorded. The content of carebastine was calculated by an external standard method, and the impurity content was calculated by a peak area normalization method.

SMILES | content decrease under high temperature, high humidity, and light exposure | content of the maximum single impurity
CC(C)(C(=O)O)c1ccc(C(=O)CCCN2CCC(OC(c3ccccc3)c3ccccc3)CC2)cc1.Cc1ccc(S(=O)(=O)O)cc1 [Example X, carebastine p-toluenesulfonate] | not more than 0.1% | not more than 0.1%
CC(C)(C(=O)O)c1ccc(C(=O)CCCN2CCC(OC(c3ccccc3)c3ccccc3)CC2)cc1.Cc1ccc(S(=O)(=O)O)cc1 [Example 2, carebastine p-toluenesulfonate] | not more than 0.1% | not more than 0.1%
